These are yes or no findings as the source states them, for the method shown. Binding seen in cells or lysates may run through a third protein. Here binding means that the protein was enriched with, or labelled near, the bait; the list need not be complete.
Molecular target: NBirA*-FLAG-TRIP12 (Thyroid hormone Receptor Interacting Protein 12 fused to the biotin ligase NBirA*(R118G)-FLAG) (human) (UniProt Q14669)
Experiment: proximity labelling

Chains of the proteins cited; added tags and fusions are not shown. Lines headed by an entry give the natural chain unless they say otherwise; changes in a name come on top.
UniProt Q14669: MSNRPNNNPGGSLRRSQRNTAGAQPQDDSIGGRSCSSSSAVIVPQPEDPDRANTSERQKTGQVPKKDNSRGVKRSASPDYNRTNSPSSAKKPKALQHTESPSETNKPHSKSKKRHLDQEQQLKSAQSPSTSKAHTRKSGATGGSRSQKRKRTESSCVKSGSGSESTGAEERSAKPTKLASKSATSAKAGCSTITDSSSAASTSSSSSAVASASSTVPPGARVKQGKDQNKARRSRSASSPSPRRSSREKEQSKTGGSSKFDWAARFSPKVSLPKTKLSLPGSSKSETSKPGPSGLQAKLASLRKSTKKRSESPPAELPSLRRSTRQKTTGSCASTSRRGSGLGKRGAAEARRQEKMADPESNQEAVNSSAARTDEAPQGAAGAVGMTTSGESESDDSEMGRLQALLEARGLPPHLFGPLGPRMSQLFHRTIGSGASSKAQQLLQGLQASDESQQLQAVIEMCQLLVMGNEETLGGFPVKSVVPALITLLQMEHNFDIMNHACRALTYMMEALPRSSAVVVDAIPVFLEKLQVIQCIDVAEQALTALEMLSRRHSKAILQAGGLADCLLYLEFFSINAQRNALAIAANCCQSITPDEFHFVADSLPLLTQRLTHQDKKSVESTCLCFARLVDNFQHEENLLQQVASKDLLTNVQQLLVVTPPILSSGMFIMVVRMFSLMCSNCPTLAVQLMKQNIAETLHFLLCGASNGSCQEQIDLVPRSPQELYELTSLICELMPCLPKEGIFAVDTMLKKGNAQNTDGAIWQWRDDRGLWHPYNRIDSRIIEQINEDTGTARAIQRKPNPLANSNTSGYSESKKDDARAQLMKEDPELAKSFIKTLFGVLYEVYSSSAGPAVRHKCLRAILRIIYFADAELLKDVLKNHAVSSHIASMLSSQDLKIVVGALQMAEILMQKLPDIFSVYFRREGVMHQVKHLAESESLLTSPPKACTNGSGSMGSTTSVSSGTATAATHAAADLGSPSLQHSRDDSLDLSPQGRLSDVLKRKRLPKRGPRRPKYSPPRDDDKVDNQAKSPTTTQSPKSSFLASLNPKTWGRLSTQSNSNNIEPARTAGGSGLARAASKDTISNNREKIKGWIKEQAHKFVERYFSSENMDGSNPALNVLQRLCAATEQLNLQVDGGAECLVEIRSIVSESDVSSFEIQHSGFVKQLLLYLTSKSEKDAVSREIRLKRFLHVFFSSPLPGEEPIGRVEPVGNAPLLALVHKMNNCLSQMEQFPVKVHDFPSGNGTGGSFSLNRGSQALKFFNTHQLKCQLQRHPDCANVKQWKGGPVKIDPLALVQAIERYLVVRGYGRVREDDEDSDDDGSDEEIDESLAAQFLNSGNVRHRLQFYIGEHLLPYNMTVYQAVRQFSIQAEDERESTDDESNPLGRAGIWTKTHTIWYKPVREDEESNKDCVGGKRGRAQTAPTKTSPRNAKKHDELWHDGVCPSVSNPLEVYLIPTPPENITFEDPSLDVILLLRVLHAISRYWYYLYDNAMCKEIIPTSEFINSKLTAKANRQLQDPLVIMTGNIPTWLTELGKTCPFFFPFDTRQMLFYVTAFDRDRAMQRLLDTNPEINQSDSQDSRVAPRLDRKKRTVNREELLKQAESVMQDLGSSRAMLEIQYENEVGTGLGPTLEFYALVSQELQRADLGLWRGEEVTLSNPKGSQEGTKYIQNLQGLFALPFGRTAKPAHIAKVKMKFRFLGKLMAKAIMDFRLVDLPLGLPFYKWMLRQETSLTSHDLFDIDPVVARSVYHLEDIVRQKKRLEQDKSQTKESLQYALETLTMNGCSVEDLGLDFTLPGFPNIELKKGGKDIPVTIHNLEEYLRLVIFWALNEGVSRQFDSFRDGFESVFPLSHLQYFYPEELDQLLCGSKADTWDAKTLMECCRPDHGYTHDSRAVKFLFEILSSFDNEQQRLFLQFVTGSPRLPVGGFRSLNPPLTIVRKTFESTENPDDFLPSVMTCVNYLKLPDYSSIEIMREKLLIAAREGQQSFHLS
UniProt Q13185: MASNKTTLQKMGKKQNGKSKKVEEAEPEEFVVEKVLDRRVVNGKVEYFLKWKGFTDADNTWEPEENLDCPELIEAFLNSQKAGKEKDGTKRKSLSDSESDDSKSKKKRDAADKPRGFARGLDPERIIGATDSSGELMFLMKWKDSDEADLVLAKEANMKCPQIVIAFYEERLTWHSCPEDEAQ
UniProt P45973: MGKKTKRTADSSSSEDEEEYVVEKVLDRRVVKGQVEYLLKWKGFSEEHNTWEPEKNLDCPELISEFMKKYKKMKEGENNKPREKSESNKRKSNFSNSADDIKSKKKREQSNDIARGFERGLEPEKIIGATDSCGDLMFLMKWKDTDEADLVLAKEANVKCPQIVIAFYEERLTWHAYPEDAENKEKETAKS
UniProt P83916: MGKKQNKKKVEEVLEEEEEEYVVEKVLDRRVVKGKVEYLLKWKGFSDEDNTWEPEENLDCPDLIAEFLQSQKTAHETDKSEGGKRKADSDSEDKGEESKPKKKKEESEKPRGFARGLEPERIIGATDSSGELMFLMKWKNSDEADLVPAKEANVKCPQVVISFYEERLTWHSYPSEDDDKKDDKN
UniProt Q969G3: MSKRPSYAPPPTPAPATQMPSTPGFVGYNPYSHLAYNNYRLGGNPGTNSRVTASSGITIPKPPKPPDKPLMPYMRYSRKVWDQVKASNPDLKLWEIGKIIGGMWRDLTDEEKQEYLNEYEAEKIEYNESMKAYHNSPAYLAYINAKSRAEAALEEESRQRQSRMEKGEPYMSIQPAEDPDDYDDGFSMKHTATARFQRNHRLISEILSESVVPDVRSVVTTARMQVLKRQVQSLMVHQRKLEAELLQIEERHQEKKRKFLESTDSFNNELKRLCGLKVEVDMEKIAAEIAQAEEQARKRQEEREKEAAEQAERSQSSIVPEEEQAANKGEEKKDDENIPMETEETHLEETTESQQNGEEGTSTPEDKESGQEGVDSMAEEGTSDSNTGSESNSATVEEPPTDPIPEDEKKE
UniProt Q14676: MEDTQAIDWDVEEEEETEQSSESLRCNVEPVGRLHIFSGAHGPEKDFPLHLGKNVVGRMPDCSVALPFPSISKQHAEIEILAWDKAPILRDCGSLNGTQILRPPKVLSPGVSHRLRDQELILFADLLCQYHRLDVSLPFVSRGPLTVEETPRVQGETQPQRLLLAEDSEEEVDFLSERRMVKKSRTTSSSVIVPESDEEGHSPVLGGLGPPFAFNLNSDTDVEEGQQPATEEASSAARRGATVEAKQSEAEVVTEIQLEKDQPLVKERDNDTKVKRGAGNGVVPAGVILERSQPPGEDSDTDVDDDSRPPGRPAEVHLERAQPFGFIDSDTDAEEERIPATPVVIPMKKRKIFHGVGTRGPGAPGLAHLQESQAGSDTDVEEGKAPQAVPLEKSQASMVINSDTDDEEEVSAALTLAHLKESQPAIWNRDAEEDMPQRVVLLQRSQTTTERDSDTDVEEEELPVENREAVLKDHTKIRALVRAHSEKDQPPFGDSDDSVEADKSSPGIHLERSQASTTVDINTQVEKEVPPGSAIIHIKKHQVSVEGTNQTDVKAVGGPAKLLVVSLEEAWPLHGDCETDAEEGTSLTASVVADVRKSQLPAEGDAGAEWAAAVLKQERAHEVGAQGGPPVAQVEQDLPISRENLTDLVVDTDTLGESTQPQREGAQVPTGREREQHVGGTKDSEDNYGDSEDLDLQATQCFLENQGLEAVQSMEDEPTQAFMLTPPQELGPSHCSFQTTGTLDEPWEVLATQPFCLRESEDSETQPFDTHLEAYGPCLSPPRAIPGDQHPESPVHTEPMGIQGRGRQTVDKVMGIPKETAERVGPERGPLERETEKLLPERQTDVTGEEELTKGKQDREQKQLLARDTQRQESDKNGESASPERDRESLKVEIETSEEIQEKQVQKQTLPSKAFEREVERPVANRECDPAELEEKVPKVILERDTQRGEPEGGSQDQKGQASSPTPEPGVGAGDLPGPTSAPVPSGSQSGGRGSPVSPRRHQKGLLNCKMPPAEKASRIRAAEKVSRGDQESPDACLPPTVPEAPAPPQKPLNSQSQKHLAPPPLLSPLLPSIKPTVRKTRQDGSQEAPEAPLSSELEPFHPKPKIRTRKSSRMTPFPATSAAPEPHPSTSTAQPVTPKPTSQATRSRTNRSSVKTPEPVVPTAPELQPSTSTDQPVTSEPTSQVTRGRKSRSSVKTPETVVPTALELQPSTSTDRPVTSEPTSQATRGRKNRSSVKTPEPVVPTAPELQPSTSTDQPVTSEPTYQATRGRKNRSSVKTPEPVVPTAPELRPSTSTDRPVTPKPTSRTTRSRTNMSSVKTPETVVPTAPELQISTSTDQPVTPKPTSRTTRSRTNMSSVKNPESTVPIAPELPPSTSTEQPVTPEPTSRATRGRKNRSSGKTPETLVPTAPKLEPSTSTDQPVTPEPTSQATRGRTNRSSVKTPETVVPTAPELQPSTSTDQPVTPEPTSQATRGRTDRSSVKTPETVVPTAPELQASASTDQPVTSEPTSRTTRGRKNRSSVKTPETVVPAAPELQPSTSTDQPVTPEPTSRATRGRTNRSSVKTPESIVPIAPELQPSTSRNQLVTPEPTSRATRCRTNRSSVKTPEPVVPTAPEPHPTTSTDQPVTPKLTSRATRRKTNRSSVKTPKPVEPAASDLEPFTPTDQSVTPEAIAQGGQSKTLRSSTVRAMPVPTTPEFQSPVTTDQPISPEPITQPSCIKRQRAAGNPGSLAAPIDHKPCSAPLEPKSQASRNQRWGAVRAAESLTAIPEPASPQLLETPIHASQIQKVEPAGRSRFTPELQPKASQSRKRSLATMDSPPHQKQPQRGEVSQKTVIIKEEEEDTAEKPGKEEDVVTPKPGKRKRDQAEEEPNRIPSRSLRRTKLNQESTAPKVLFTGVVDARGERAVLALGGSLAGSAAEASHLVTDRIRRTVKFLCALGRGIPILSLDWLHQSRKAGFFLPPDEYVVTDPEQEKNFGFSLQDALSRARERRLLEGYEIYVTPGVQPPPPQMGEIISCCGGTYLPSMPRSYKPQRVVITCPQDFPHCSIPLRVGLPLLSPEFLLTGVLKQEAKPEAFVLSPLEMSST

Row | Substance | binding
1 | heterochromatin protein 1 (HP1) isoform γ (CBX3) (from UniProt Q13185 1-183) | binds
2 | heterochromatin protein 1 (HP1) isoform α (CBX5) (from UniProt P45973 1-191) | binds
3 | heterochromatin protein 1 (HP1) isoform β (CBX1) (from UniProt P83916 1-185) | binds

Other lines, results leading:

Row | binding | Substance
4 | binds | SWI/SNF-Related Matrix-Associated Actin-Dependent Regulator Of Chromatin Subfamily E Member 1 (SMARCE1) (from UniProt Q969G3 1-411)
5 | binds | Mediator of DNA damage checkpoint 1 (MDC1) (from UniProt Q14676 1-2089)

— publication doi:10.1101/2023.09.13.556486
